Laboratory results published in patent publication US20220389355A1, “CELL AGGREGATE, PRODUCING METHOD FOR MANUFACTURING CELL AGGREGATE, PRODUCING KIT FOR CELL AGGREGATE, AND CHEMICAL COMPOUND EVALUATING METHOD USING CELL AGGREGATE” (THE JAPAN WOOL TEXTILE CO., LTD., priority 2019, published 2022).

What was measured:
[1] = test system: cardiomyocytes derived from iPS cells (Pluricyte) multicellular construct; settings: cumulative addition 0, 1, 10, 100, 1000 nM; 10 minutes after each addition; eighth day of the culture
[2] = test system: cardiomyocyte multicellular construct (human iPS cell derived cardiomyocytes); experiment: Example 7: calcium imaging evaluation of response of cardiomyocyte multicellular construct against compound; settings: cumulative addition 1 to 1000 nM, seventh day of the culture
Method: Cells were seeded and cultured in the same manner as in Example 6, except that the cells were seeded such that the seeding amount per unit area of the scaffold was 6000 cells/mm^2.
On the sixth day of the culture, the cardiomyocyte multicellular construct was placed such that a surface containing more cells faced the bottom surface of a culture dish (IWAKI Multiwell Plate, Non-treated surface for suspension cell culture 6. Well), and was then left to stand for a day. On the seventh day of the culture, a calcium indicator (EarlyTox Cardiotoxicity Kit, Molecular Devices LLC) was added to the culture medium at a volume ratio of 25/100 to fluorescently stain calcium ions in the cardiomyocytes.
The fluorescence intensities in the entire 10-fold magnified visual fields of the obtained images were plotted versus time using an analysis software CellPathfinder, Yokogawa Electric Corp.), and thus signal waveforms of calcium ions in the cardiomyocytes were obtained. Verapamil is a Ca channel antagonist having an Ikr inhibitory effect.

[3] = test system: human iPS cell derived cardiomyocyte multicellular construct; settings: 900 nM, 120 minutes after the addition, fourth day of the culture

## Cc1cccc(CCN2CCC(C(=O)c3ccc(NS(C)(=O)=O)cc3)CC2)n1 [Example E-4031]
[1]
  Membrane potential signal waveform: prolonged waveforms
[2]
  Concentration at which arrhythmia occurred: ≥ 100 nM
[3]
  Arrhythmia (beating behavior at measurement point B vs A): arrhythmia occurred
  Synchronous beating (calcium ion concentration changes at different sites): the synchronous beating was suppressed
